According to the odorant receptor screen of Mainland et al. (2015):
Several values for one entry are separate records, joined by “and”; a condition that tells them apart may be missing. Equal values may be shown once. This is one part of the list. Each value is one well over the wells without odorant, computed here; the data are noisy.

Columns and labels:
Experiment in all cases: odorant receptor activation (CRE luciferase / Renilla) (fold of no-odor wells); higher = more activation
Settings in all cases: 100 µM
[1] = tested on: OR1N2 W23R/V230G/T287M clone 1105
[2] = tested on: OR1N2 W37R/V244G/T301M clone 1350
OR1N2 clone 1505 = tested on: OR1N2 clone 1505
[3] = tested on: OR1Q1 Q24R/I163M clone 1103
OR1S1 clone 1455 = tested on: OR1S1 clone 1455
OR1S2 I46T clone 1137 = tested on: OR1S2 I46T clone 1137
OR2A1 clone 1078 = tested on: OR2A1 clone 1078
OR2A12 clone 1085 = tested on: OR2A12 clone 1085
OR2A14 Indel clone 1540 = tested on: OR2A14 Indel clone 1540
OR2A14 clone 1083 = tested on: OR2A14 clone 1083
OR2A2 F280L clone 1541 = tested on: OR2A2 F280L clone 1541
OR2A2 clone 1476 = tested on: OR2A2 clone 1476
OR2A25 clone 1387 = tested on: OR2A25 clone 1387
OR2A4 clone 1386 = tested on: OR2A4 clone 1386
OR2A42 clone 1565 = tested on: OR2A42 clone 1565
OR2A5 clone 1437 = tested on: OR2A5 clone 1437
OR2A7 clone 1077 = tested on: OR2A7 clone 1077
OR2A7 clone 1543 = tested on: OR2A7 clone 1543
OR2AE1 I77T clone 1079 = tested on: OR2AE1 I77T clone 1079
OR2AG1 clone 1112 = tested on: OR2AG1 clone 1112

CCC(C)=O [2-butanone]
odorant receptor activation [1]: 4.49
odorant receptor activation [2]: 1.29
odorant receptor activation (OR1N2 clone 1505): 1.05
odorant receptor activation [3]: 16.9
odorant receptor activation (OR1S1 clone 1455): 0.789
odorant receptor activation (OR1S2 I46T clone 1137): 1.11
odorant receptor activation (OR2A1 clone 1078): 3.77
odorant receptor activation (OR2A12 clone 1085): 3.07
odorant receptor activation (OR2A14 Indel clone 1540): 1.21
odorant receptor activation (OR2A14 clone 1083): 2.34
odorant receptor activation (OR2A2 F280L clone 1541): 1.2
odorant receptor activation (OR2A2 clone 1476): 1.05
odorant receptor activation (OR2A25 clone 1387): 0.967
odorant receptor activation (OR2A4 clone 1386): 1.11
odorant receptor activation (OR2A42 clone 1565): 0.534
odorant receptor activation (OR2A5 clone 1437): 0.648
odorant receptor activation (OR2A7 clone 1077): 3.8
odorant receptor activation (OR2A7 clone 1543): 1.17
odorant receptor activation (OR2AE1 I77T clone 1079): 22.8
odorant receptor activation (OR2AG1 clone 1112): 7.53

CCCCOC(C)=O [butyl acetate]
odorant receptor activation [1]: 1.38
odorant receptor activation [2]: 0.951
odorant receptor activation (OR1N2 clone 1505): 1.06
odorant receptor activation [3]: 1.12
odorant receptor activation (OR1S1 clone 1455): 1.37
odorant receptor activation (OR1S2 I46T clone 1137): 1.05
odorant receptor activation (OR2A1 clone 1078): 1.08
odorant receptor activation (OR2A12 clone 1085): 1.45
odorant receptor activation (OR2A14 Indel clone 1540): 0.912
odorant receptor activation (OR2A14 clone 1083): 1.13
odorant receptor activation (OR2A2 F280L clone 1541): 0.823
odorant receptor activation (OR2A2 clone 1476): 1.15
odorant receptor activation (OR2A25 clone 1387): 0.257
odorant receptor activation (OR2A4 clone 1386): 0.182
odorant receptor activation (OR2A42 clone 1565): 0.723
odorant receptor activation (OR2A5 clone 1437): 0.312
odorant receptor activation (OR2A7 clone 1077): 0.95
odorant receptor activation (OR2A7 clone 1543): 0.751
odorant receptor activation (OR2AE1 I77T clone 1079): 1.2
odorant receptor activation (OR2AG1 clone 1112): 1.04

CS [methanethiol]
odorant receptor activation [1]: 1.09
odorant receptor activation [2]: 0.901
odorant receptor activation (OR1N2 clone 1505): 0.985
odorant receptor activation [3]: 1.06
odorant receptor activation (OR1S1 clone 1455): 0.539
odorant receptor activation (OR1S2 I46T clone 1137): 1.08
odorant receptor activation (OR2A1 clone 1078): 1.01
odorant receptor activation (OR2A12 clone 1085): 1.15
odorant receptor activation (OR2A14 Indel clone 1540): 0.887
odorant receptor activation (OR2A14 clone 1083): 0.979
odorant receptor activation (OR2A2 F280L clone 1541): 0.922
odorant receptor activation (OR2A2 clone 1476): 1.03
odorant receptor activation (OR2A25 clone 1387): 1.22
odorant receptor activation (OR2A4 clone 1386): 0.815
odorant receptor activation (OR2A42 clone 1565): 1.05
odorant receptor activation (OR2A5 clone 1437): 1.01
odorant receptor activation (OR2A7 clone 1077): 0.847
odorant receptor activation (OR2A7 clone 1543): 0.7
odorant receptor activation (OR2AE1 I77T clone 1079): 0.994
odorant receptor activation (OR2AG1 clone 1112): 1.12

CCOc1cc(C=O)ccc1O [ethyl vanillin]
odorant receptor activation [2]: 1.4 and 2.16 and 1.15
odorant receptor activation (OR1N2 clone 1505): 1.39 and 2.35 and 1.02
odorant receptor activation [3]: 0.391 and 1.17
odorant receptor activation (OR1S1 clone 1455): 0.794
odorant receptor activation (OR1S2 I46T clone 1137): 1.5 and 1.29
odorant receptor activation (OR2A1 clone 1078): 1.86 and 0.844
odorant receptor activation (OR2A12 clone 1085): 2.38 and 1.02
odorant receptor activation (OR2A14 Indel clone 1540): 1.47
odorant receptor activation (OR2A14 clone 1083): 0.463 and 1.11
odorant receptor activation (OR2A2 F280L clone 1541): 1.15
odorant receptor activation (OR2A2 clone 1476): 1.03 and 1.3 and 1.52
odorant receptor activation (OR2A25 clone 1387): 0.999 and 1.12
odorant receptor activation (OR2A4 clone 1386): 0.987 and 1.13
odorant receptor activation (OR2A42 clone 1565): 0.722
odorant receptor activation (OR2A5 clone 1437): 1.24 and 1.4
odorant receptor activation (OR2A7 clone 1077): 1.02
odorant receptor activation (OR2A7 clone 1543): 1.2
odorant receptor activation (OR2AE1 I77T clone 1079): 1.51 and 1.15
odorant receptor activation (OR2AG1 clone 1112): 0.752 and 1.1
